Experimental data from article PMC9573979.
These are yes or no findings as the source states them, for the method shown. In cells and extracts the contact can be indirect. Some results given as binding are weak or reduced against the parent protein; the word gives no strength.

Amino acid sequences for entries named in this document (tags omitted).
UniProt P97496: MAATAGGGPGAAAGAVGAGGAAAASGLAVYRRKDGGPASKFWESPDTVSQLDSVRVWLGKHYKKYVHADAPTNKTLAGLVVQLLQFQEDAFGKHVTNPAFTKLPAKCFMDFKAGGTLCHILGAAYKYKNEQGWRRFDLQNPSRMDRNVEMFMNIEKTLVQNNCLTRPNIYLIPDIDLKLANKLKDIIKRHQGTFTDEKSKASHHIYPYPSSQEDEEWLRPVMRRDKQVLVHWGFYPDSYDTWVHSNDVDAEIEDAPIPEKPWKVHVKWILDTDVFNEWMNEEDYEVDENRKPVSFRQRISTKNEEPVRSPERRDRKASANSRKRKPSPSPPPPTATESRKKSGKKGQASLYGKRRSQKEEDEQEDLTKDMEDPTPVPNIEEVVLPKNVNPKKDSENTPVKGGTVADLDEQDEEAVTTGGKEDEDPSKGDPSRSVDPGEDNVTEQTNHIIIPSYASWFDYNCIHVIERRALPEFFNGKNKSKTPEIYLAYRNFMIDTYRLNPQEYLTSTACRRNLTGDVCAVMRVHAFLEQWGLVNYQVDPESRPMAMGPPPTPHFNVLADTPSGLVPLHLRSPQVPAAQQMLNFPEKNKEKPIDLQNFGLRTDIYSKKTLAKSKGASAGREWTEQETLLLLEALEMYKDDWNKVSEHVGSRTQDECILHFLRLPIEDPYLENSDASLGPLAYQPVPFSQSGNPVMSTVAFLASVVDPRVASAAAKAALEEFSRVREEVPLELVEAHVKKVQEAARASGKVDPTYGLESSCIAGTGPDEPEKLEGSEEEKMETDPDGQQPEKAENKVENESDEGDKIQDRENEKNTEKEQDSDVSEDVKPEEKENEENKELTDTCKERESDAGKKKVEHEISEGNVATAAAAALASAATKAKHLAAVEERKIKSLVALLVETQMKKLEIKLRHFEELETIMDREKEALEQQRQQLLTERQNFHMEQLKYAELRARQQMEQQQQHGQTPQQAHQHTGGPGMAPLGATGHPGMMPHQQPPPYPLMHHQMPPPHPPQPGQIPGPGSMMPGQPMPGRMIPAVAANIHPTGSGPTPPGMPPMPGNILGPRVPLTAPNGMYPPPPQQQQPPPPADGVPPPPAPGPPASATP
UniProt Q6PDG5: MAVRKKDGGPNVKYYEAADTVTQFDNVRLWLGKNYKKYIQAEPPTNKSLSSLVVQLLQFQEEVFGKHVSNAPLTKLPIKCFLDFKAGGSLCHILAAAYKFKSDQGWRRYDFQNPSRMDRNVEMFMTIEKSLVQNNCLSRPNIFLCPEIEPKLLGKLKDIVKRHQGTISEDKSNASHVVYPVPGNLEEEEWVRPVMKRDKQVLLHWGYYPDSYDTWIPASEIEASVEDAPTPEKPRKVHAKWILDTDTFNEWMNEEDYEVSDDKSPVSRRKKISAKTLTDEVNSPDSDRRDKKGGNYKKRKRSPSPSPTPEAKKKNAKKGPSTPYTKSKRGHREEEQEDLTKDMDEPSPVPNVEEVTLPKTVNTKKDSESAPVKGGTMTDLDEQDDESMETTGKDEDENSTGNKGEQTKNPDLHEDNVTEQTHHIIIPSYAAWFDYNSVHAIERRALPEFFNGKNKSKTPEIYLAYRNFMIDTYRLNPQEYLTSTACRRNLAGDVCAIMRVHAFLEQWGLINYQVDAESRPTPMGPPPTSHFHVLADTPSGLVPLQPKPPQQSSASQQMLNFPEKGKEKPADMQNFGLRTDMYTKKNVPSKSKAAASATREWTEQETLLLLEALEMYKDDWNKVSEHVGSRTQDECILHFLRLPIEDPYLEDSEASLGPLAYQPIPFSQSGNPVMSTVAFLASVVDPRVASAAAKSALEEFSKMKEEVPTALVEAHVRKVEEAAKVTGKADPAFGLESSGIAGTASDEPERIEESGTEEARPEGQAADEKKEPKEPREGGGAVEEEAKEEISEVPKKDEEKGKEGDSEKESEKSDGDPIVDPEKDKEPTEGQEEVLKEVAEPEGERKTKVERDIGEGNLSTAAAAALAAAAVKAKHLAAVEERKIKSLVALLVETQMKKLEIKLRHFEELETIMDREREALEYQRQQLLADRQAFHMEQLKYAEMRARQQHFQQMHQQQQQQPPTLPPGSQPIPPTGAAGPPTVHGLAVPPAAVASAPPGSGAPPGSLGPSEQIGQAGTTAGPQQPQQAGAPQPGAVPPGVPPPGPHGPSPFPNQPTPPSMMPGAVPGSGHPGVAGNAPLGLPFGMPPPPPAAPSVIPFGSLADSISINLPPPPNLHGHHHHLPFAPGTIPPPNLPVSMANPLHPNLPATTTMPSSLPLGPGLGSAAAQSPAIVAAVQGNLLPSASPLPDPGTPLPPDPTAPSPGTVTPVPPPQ

Key:
[1] = molecular target: BAF155 (mouse (endogenous in telencephalic tissue)) (UniProt P97496); assay: co-IP; coIP/western blot of E12.5 dorsal telencephalic tissue
[2] = molecular target: BAF170 (mouse (endogenous in telencephalic tissue)) (UniProt Q6PDG5); assay: as above

B1: LHX2 (protein, UniProt Q9Z0S2 1-406)
chain: MLFHSLSGPEVHGVIDEMDRRAKSEAPAISSAIDRGDTETTMPSISSDRAALCAGCGGKISDRYYLLAVDKQWHMRCLKCCECKLNLESELTCFSKDGSIYCKEDYYRRFSVQRCARCHLGISASEMVMRARDLVYHLNCFTCTTCNKMLTTGDHFGMKDSLVYCRLHFEALLQGEYPAHFNHADVAAAAAAAAAAKSAGLGSAGANPLGLPYYNGVGTVQKGRPRKRKSPGPGADLAAYNAALSCNENDAEHLDRDQPYPSSQKTKRMRTSFKHHQLRTMKSYFAINHNPDAKDLKQLAQKTGLTKRVLQVWFQNARAKFRRNLLRQENTGVDKTSDATLQTGTPSGPASELSNASLSPSSTPTTLTDLTSPTLPTVTSVLTSVPGNLEGHEPHSPSQTTLTNLF
B1 was tested, and the binding [1] was “binds” and the binding [2] was “binds”.
